Patent publication EP1142907A1
These are yes or no findings as the source states them, for the method shown. Binding seen in cells or lysates may run through a third protein. Some binding calls cover weakened binding; strength is not graded here.

By UniProt entry, the sequences of proteins in these tests, tags left out.
UniProt P15337: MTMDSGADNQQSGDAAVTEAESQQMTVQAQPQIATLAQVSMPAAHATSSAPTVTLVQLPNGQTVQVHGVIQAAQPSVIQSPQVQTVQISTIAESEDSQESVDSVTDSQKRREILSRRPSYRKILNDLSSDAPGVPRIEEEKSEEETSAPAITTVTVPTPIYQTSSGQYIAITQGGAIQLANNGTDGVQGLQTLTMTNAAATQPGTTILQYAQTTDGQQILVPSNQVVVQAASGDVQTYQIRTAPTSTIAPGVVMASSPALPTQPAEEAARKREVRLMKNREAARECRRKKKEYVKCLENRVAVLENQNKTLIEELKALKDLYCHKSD

Molecular target: native CREB of rat tissue extracts (rat) (UniProt P15337)
Assay: coimmunoprecipitation of native proteins from rat brain nuclear extracts

binding: binds
B1: native DREAM of rat brain nuclear extracts (protein, UniProt Q9JM47 1-256, looked up)
chain: MQRTKEAMKASDGSLLGDPGRIPLSKREGIKWQRPRFTRQALMRCCLIKWILSSAAPQGSDSSDSELELSTVRHQPEGLDQLQAQTKFTKKELQSLYRGFKNECPTGLVDEDTFKLIYSQFFPQGDATTYAHFLFNAFDADGNGAIHFEDFVVGLSILLRGTVHEKLKWAFNLYDINKDGYITKEEMLAIMKSIYDMMGRHTYPILREDAPLEHVERFFQKMDRNQDGVVTIDEFLETCQKDENIMSSMQLFENVI
